No constants are given. Whether binding was seen depends on the method and setting. In cells and extracts the contact can be indirect.
Target: GST-MYND, purified MYND domain of ZMYND10
Experiment: pull-down; purified GST-ZMYND10 (full length) or GST-MYND as bait; lysates from mTECs; immunoblot; only the target purified

| Binder | binding |
| --- | --- |
| DNAI1, endogenous in mouse tracheal epithelial cells (protein, UniProt Q8C0M8 1-701) MPSKQIRKQSISVTRGARRRDEDSGTDVGEGTDEWSQSKATVRPPDQLELTDAELKEEFTRILTANNPHAPQNIVRYSFKEGTYKLIGFVNQMAVHFSQVGNLIPKDSDEGRRQHYRDEMVAGSQESIKVVTSEAENLEEEEEPKEGEGEAEAEAEAGSQTDIPAAAETTEKVIEEELMAPVQPKERKLTNQFNFSERASQTFNNPLRDRECQMEPPPRTNFSATANQWEIYDAYVDELEKQEKTKEKEKAKTPVAKKTEKMAMRKLTSMESQSDDITKVTQAAKIVERMVNQNTYDDVAQDFKYYEDTADEYRDQEGTLLPLWKFQNDKAKRLAVTALCWNPKYKDLFAVGHGSYDFMKQSRGMLLLYSMKNPSFPEYMFSSESGIMCLDVHVDHPYLVVVGYYDGNVAIYNLKKPHSQPCFRSTSKSGKHTDPVWQVKWQKDDMDHNLNFFSVSSDGRIVSWTLVKSELVHIDIIKLKTEGSTTEIPEGLQLHTVGCGTAFDFHKEIDYMFLVGTEEGKIYKCSKSYSSQFLDTYDAHNMAVDAVLWNPYHTKVFMSCSSDWTVKIWDHTIKTPMFIYDLNSAVGDVAWAPYSSTVFAAVTTDGKAHVFDLAVNKYEAICNQPVVAKKKNKITHVQFNPIHPIIIVGDDRGHIICLKLSPNLRKMPKEKKGQEVQKGPAVEIAKLDKLLNLVREVKTKT | no binding |
| IQUB, endogenous in mouse tracheal epithelial cells (protein, UniProt Q8CDK3 1-788) MSDPEEERVADSTAHYEEAGKVISIPRPSDEAEGSDVMPEQDDEVQELTTESEENVERHSEFSLSTPKSDDSKPREEVTSLGSASGSQDQDYRLLDYQKGEDDELLFLHKIKAIKETLQTSVRESIATVKIVLIPAGQEIIMPFRVDAPFRFLKEHFAHLLHIPHYVLQITHEGIIVGNNESLIQYGIKPQEIVQVEVFSTLPDQYPVRRIEGLSEGSQIITVTIQTSIDRYEEVAVEIIKSDFHKPFLGGFRHKITGLEYHNAGTQTVPRKIPEKDNLFCRDTQTVFQKKKLQQTTNTTSTQMTKIGVYVSNMTDKLLKPGNYFSAAEYHARRLHAVIVIQTSYRRWHAKRYVESLRKQKKLRLEWEEEQELLKIQEKEEWIRMDYYRRHNPKTTEDFELLYNALELWRQEEVEQICHYSSEAERKAALCELLEKETQMIASIGRHRSAARMERQDAAIQAFLDKCSAPNVWRRGDGKTIEMDTQFTIRARELQSIYKCILLKDLSQDERLDILLTLKHTVKEHECKLTQEILELIDREVDLMMRGVKPHNLEGLRKRITTLFIHYIKTPLFNPEVAKYLKVPQDPLKFYDTIYFCHSCQNYLPSVEFSVSPTSHRVYRCRHCINLENETQRRESFLKYKCLLQRLYYSEADYGDNSQIAFLMQLQDIKYLTENIWASQSALSAWDDLNDLVMVRWDKHVEWSPWNCILLTKDESTAHLRLPSIEKGYGHHFVHKIKHKHILAKNYFSQIPTLASLILNDDEVEDIRSKHSTKSPPKIIITRRIQPH | no binding |
| LRRC6, endogenous in mouse tracheal epithelial cells (protein, UniProt O88978 1-473) MGRITEDLIRRNAEHNDCVIFSLEELSLHQQEIERLEHIDKWCRDLKILYLQNNLIGKIENVSKLKKLEYLNLALNNIERIENLEGCEWLTKLDLTVNFIGELSSVKTLTHNIHLKELFLMGNPCADFDGYRQFVVVTLQQLKWLDGKEIERSERIQALQNYTSVEQQIREQEKAYCLRRAKEKEEAQRKLEEENESEDKKKSSTGFDGHWYTDIHTACPSATENQDYPQVPETQEEQHNTKESDDIEDDLAFWNKPSLFTPESRLETLRHMEKQRKAQDKLSEKKKKAKPPRTLITEDGKVLNVNEAKLDFSLKDDEKHNQIILDLAVYRYMDTSLIEVDVQPTYVRVMVKGKPFQLALSTEVQPDRSSAKRSQTTGHLLICMPKVGEMITGGQRTPTSVKTTSTSSREQTNPRKKQIERLEVDPSKHSCPDVSTIVQEKRHRPKRMESQPRDEPSEEDPDFEDNPEVPPLI | no binding |
